Results are given in words; binding and its absence hold for the method and conditions named. Some entries that bind do so weakly or less than the wild type.
Biological target: Human TIM-3 protein (Acrobiosystems, Cat#TM3-H5229) (human) (UniProt Q8TDQ0)
Assay: phage ELISA, human TIM-3 coated at 0.1 µg/mL, anti-M13 detection

Protein sequences, listed by entry. Tags and fused reporters are not part of them. Residues count along the entry.
UniProt Q8TDQ0, residues 22-200: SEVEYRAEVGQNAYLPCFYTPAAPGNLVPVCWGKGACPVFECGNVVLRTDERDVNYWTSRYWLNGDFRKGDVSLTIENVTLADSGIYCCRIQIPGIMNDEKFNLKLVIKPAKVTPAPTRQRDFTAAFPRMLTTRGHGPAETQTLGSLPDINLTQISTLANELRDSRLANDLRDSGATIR

B1: clone TIM3-11, scFv displayed on phage (scFv)
scFv: QVQLQQSGPGLVKPSQTLSLTCAISGDSVSSNSAAWNWIRQSPSRGLEWLGRTYYRSKWYNDYAVSVKSRITINPDTSKNQFSLQLNSVTPEDTAVYYCARDQAAGFPQPYIYGMDVWGKGTMVTVSSGGGGSGGGGSGGGGSLPVLTQPPSVSKGLRQTATLTCTGNSNNVGNQGAAWLQQHQGHPPKLLTYRTNNRPSGISERFSASRSGNTASLTITGLQPEDEADYYCSGWDSSLNEGVFGGGTKLTVLG
- binding: binds

B2: clone TIM3-6, scFv displayed on phage (scFv)
scFv: QVQLVQSGAEVKKPGSSVKVSCKASGGTFSSYTISWVRQAPGQGLEWMGRIIPILGTANYAQKFQGRVTITADESTSTAYMELSSLRSEDTAVYYCASASHTIWGKGTLVTVSSGGGGSGGGGSGGGGSQAVVTQEPSLTVSPGGTVTLTCASSTGAVTSGYSPNWFQQRPGQAPRALIYTTSNRHSWTPARFSGSLLGGKAALTLSGVQPEDEADYYCLLYYGGAWVFGGGTKLTVLG
- binding: binds

B3: clone TIM3-4G7, scFv displayed on phage (scFv)
scFv: EVQLVETGGGLVQPGGSLRLSCAASGFTFSSYAMSWVRQAPGKGLEWVSGISGSGGSTYYADSVKGRFTTSRDNSENTLYLQMNSLRAEDTAVYYCAGSYYDDAFDIWGQGTLVTVSSGGGGSGGGGSGGGGSETTLTQSPATLSLSPGDTATLSCRASQSVTKDLVAWYQQRPGQAPRLLLYGASSRATGIPDRFSGSGSGTDFTLTISRLEPEDFAVYYCQQYGRSPLTFGGGTKVEIK
- binding: binds

Reference: patent publication US20210221885A1
